Source: PubChem BioAssay AID1259254 (NCATS, 2017)
Screen: 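Gene knock-downs that lead to re-replication, shown by excess G2 DNA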 (primary screen). System: human HCT116 colorectal cancer cells. Knock-down reagent: single siRNA against human genes. Duration: 3 days. Measured: 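Imaged Hoechst DNA stain sorts each cell into a cycle phase by DNA amount; per plate, G2 fraction set to 0% for non-targeting and 100% for GMNN siRNA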. Reading the numbers: G2 robust z-score and G2 cells, % of GMNN control: higher = more G2 cells, more excess DNA replication; raw share of cells in G2: higher = larger share of cells with G2 DNA content. Active means: 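Active siRNAs have a G2 robust z of 5 or more median absolute deviations over the median, which in these data means about 38% or higher of GMNN control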.
In all, the deposit lists about 59,000 reagents; shown is a random part of them. Over the whole deposit, about 1,550 (2.6%) are marked active. 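G2 share is only a proxy for re-replication; each gene was hit by three separate siRNAs, and active genes were retested.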 The raw values are shown without normalisation. A number with no mark means an inactive call. The numbers tell different reagents against one gene apart. Not stated in the record: the amount of reagent.

gene | siRNA no. | G2 robust z-score | G2 cells, % of GMNN control | raw share of cells in G2 (%)
KL | 1 | -0.806 | -2.7 | 4.46
KL | 2 | -0.391 | 0.219 | 4.34
KL | 3 | -0.765 | -2.42 | 3.68
LSMEM2 | 1 | 0.154 | 4.05 | 5.7
LSMEM2 | 2 | 0.236 | 4.63 | 4.57
LSMEM2 | 3 | -0.311 | 0.782 | 2.86
TRIM47 | 1 | -0.583 | -1.14 | 5.14
TRIM47 | 2 | -0.345 | 0.541 | 5.2
TRIM47 | 3 | -0.081 | 2.4 | 5.39
STXBP4 | 1 | 0.545 | 6.8 | 7.19
STXBP4 | 2 | 5.49 (active) | 41.6 | 22.2
STXBP4 | 3 | -0.636 | -1.5 | 5.24
SYT4 | 1 | -0.692 | -1.9 | 2.7
SYT4 | 2 | 0.022 | 3.12 | 6.31
SYT4 | 3 | 0.0362 | 3.22 | 4.28
NUDT21 | 1 | -0.589 | -1.18 | 5.9
NUDT21 | 2 | 0.877 | 9.14 | 7.21
NUDT21 | 3 | 0.219 | 4.51 | 5.41
PDE4DIPP6 | 1 | 1.2 | 11.4 | 6.66
PDE4DIPP6 | 2 | 2.75 | 22.3 | 12.2
PDE4DIPP6 | 3 | 1.94 | 16.6 | 9.39
H3C15 | 1 | 2.38 | 19.7 | 10.8
H3C15 | 2 | -0.341 | 0.572 | 3.51
H3C15 | 3 | 0.611 | 7.26 | 7.11
VEZF1 | 1 | 0.749 | 8.24 | 7.19
VEZF1 | 2 | -0.852 | -3.03 | 4.32
VEZF1 | 3 | 0.198 | 4.36 | 5.89
WDR38 | 1 | -0.592 | -1.2 | 3.37
WDR38 | 2 | -0.2 | 1.56 | 4.14
WDR38 | 3 | 1.33 | 12.3 | 9.91
KIAA1958 | 1 | 0.0272 | 3.16 | 4.73
KIAA1958 | 2 | 5.07 (active) | 38.7 | 15.9
KIAA1958 | 3 | 0.325 | 5.25 | 4.42
PRKDC | 1 | 8.96 (active) | 66 | 27.4
PRKDC | 2 | -0.461 | -0.274 | 5.32
PRKDC | 3 | -0.133 | 2.03 | 4.74
MRPL16 | 1 | 1.37 | 12.6 | 8.12
MRPL16 | 2 | 6.43 (active) | 48.2 | 24.6
MRPL16 | 3 | 3.88 | 30.2 | 13.2
THUMPD2 | 1 | 4.23 | 32.8 | 19.1
THUMPD2 | 2 | 3.29 | 26.2 | 13.7
THUMPD2 | 3 | 1.18 | 11.2 | 8.95
POLR2J4 | 1 | 1.58 | 14.1 | 7.64
POLR2J4 | 2 | 0.854 | 8.98 | 5.13
POLR2J4 | 3 | 3.12 | 25 | 12.4
HLA-DPA1 | 1 | 2.21 | 18.5 | 10.8
HLA-DPA1 | 2 | 0.104 | 3.7 | 7.04
HLA-DPA1 | 3 | -0.298 | 0.873 | 4.41

Active calls (from the list above):
gene | siRNA no. | G2 robust z-score | G2 cells, % of GMNN control | raw share of cells in G2 (%)
STXBP4 | 2 | 5.49 (active) | 41.6 | 22.2
KIAA1958 | 2 | 5.07 (active) | 38.7 | 15.9
PRKDC | 1 | 8.96 (active) | 66 | 27.4
MRPL16 | 2 | 6.43 (active) | 48.2 | 24.6
